PubChem BioAssay AID1259308, NCATS | 2017
Aim: 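Genes whose loss raises luciferase production in HEK293 cells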 (primary screen). System: human HEK293 embryonic kidney cells stably expressing firefly luciferase (HEK-CMV-Luc2-Hygro). Reagent: single siRNA against human genes, 0.8 pmol siRNA per well. Duration: 72 h. Detection: 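Reporter luminescence and viable-cell signal on separate replicate plates, given as percent of non-targeting control and median/MAD z-scores, plus per-cell luciferase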. Reading the numbers: total luciferase, z-score: higher = more reporter protein produced. Rule for the call: 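An siRNA counts as active if its total luciferase robust z-score exceeds 3; genes with two or more such siRNAs out of three were retested with fresh siRNAs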. Meaning of the calls: active = raised luciferase; inactive = no rise.
The whole screen tested about 59,000 reagents; this is an unselected part. In the full data, about 1,510 (2.6%) were called active. 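Calls use total luciferase alone and ignore viability, so some active siRNAs may act by altering cell number.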 Not all columns of the deposit are shown.

The opening 2 entries as a preview:
{"Gene": "AKIRIN2 (akirin 2)", "PubChem SID": "SID160733581", "total luciferase, z-score": 0.978, "Call": "inactive"}
{"Gene": "AKIRIN2 (akirin 2)", "PubChem SID": "SID160742996", "total luciferase, z-score": 0.185, "Call": "inactive"}

Results, from the first entry:
{"Gene": "AKIRIN2 (akirin 2)", "PubChem SID": "SID160733581", "total luciferase, z-score": 0.978, "Call": "inactive"}
{"Gene": "AKIRIN2 (akirin 2)", "PubChem SID": "SID160742996", "total luciferase, z-score": 0.185, "Call": "inactive"}
{"Gene": "AKIRIN2 (akirin 2)", "PubChem SID": "SID160742997", "total luciferase, z-score": -0.225, "Call": "inactive"}
{"Gene": "BTG1 (BTG anti-proliferation factor 1)", "PubChem SID": "SID160729241", "total luciferase, z-score": -1.83, "Call": "inactive"}
{"Gene": "BTG1 (BTG anti-proliferation factor 1)", "PubChem SID": "SID160729252", "total luciferase, z-score": -0.994, "Call": "inactive"}
{"Gene": "BTG1 (BTG anti-proliferation factor 1)", "PubChem SID": "SID160729263", "total luciferase, z-score": 0.691, "Call": "inactive"}
{"Gene": "NIBAN3 (niban apoptosis regulator 3)", "PubChem SID": "SID160760752", "total luciferase, z-score": 1.1, "Call": "inactive"}
{"Gene": "NIBAN3 (niban apoptosis regulator 3)", "PubChem SID": "SID160760753", "total luciferase, z-score": -0.315, "Call": "inactive"}
{"Gene": "NIBAN3 (niban apoptosis regulator 3)", "PubChem SID": "SID160760755", "total luciferase, z-score": -2.71, "Call": "inactive"}
{"Gene": "SOD3 (superoxide dismutase 3)", "PubChem SID": "SID160717171", "total luciferase, z-score": -0.0107, "Call": "inactive"}
{"Gene": "SOD3 (superoxide dismutase 3)", "PubChem SID": "SID160717172", "total luciferase, z-score": 0.221, "Call": "inactive"}
{"Gene": "SOD3 (superoxide dismutase 3)", "PubChem SID": "SID160717173", "total luciferase, z-score": -0.121, "Call": "inactive"}
